Assay results: ChEMBL document CHEMBL1141686, “Discovery of a novel class of PPARdelta partial agonists” (Bioorg Med Chem Lett, 2008)
pIC50: −log10 of the molar value.

What follows are compounds tested against T1, Peroxisome proliferator-activated receptor gamma (Homo sapiens, UniProt P37231).
T1 sequence (P37231 whole entry): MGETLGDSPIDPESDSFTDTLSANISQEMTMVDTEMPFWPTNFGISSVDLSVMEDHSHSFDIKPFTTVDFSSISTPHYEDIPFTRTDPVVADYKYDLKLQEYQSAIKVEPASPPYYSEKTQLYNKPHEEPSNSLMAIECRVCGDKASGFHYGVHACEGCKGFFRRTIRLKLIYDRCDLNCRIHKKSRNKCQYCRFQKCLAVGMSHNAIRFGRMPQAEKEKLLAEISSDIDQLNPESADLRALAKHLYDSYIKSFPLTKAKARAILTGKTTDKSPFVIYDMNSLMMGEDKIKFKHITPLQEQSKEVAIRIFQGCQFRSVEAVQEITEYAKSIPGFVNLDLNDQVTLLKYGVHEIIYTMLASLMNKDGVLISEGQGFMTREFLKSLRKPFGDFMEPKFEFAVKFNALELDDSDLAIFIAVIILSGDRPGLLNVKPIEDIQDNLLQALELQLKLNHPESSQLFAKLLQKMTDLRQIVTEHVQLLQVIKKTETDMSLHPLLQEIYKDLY

Row | Compound | pIC50
1 | Cc1cccc(C(=O)O)c1NC(=O)c1cccc(S(=O)(=O)N2CCc3ccccc3C2)c1 | < 5.00
2 | Cc1cccc(NC(=O)c2cccc(S(=O)(=O)N3CCc4ccccc4C3)c2)c1C(=O)O | < 5.00
3 | COc1cccc2ccn(S(=O)(=O)c3cccc(C(=O)Nc4ccc(C)cc4C(=O)O)c3)c12 | 5.30
